Results are given in words; binding and its absence hold for the method and conditions named. Some entries that bind do so weakly or less than the wild type.
Molecular target: FLAG-G6PD (UniProt P11413)
Experiment: pull-down; FLAG-G6PD isolated from HeLa mCherry-Parkin cells and held on FLAG M2 beads, incubated with 100 ng recombinant human PINK1 in 1 mL lysis buffer (25 mmol/L Tris-HCl pH 7.4, 150 mmol/L NaCl, 1% NP-40, 1 mmol/L EDTA, 5% glycerol) for 2 h at room temperature; western blot; both purified

Sequences of proteins named here, by UniProt entry; tags and fusion partners are left off. Residues count along the entry.
UniProt P11413: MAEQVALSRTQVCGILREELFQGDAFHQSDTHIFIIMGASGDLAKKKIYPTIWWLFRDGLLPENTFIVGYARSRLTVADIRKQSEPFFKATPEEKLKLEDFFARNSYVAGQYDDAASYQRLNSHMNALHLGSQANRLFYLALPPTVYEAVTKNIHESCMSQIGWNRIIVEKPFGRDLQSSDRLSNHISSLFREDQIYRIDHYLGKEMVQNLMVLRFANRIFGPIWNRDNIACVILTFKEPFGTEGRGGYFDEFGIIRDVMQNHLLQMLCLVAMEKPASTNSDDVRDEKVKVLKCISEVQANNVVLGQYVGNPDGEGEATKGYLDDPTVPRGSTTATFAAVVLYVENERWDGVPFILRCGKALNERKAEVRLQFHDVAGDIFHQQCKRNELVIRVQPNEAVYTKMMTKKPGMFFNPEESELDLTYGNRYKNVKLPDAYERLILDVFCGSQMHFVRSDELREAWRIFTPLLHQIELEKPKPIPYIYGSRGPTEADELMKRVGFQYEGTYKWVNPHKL
UniProt Q9BXM7, residues 78-581: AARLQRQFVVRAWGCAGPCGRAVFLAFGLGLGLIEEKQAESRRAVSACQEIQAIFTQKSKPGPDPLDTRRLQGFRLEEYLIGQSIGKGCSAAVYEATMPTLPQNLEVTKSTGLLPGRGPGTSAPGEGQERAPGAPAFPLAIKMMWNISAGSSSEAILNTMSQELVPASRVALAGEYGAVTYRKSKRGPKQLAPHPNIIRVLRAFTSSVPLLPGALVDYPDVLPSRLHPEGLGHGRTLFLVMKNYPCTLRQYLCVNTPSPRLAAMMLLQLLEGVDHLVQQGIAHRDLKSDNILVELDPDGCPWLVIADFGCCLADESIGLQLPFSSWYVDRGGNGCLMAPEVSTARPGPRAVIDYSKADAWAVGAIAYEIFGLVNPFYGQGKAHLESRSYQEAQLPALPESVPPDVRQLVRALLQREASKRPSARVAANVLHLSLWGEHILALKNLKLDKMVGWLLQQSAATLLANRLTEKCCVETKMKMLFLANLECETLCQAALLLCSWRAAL

binding: binds
Substance: recombinant human PINK1 protein (from UniProt Q9BXM7 78-581) (enzyme)
